Measured values reported in patent publication US9017962B2, “Intracellular reporters” (The Johns Hopkins University, priority 2007, dated 2015).
At least one structure is not confirmed: it was looked up by name or label, or the drawing left a doubt.

Tested on: Akt
Experiment: Mito-AktAR imaging, Akt activity at the mitochondrial outer membrane, NIH3T3 cells
Assay type: cell-based
Text: All of the targeting tags were subcloned to AktAR from targeted A Kinase Activity Reporter (AKAR) (Allen & Zhang, Biochem Biophys Res Commun. 2006, 22; 348(2):716-21). Two plasma membrane targeted AktAR, PM(Lyn)-AktAR and AktAR-PM(CAAX), were generated by addition of the N-terminal portion of Lyn kinase gene at the 5′ end and CAAX tag at the 3′ end of AktAR, respectively. Nuclear localization was achieved by a C-terminal nuclear localization signal (NLS) tag (PKKKRKVEDA, SEQ ID NO:31). The targeting motif from DAKAP1a was used to target AktAR to the outer membrane of mitochondria.
NIH 3T3 cells were used in all experiments. The cells were plated on sterilized glass coverslips in 35-mm dishes and were grown to 40% confluency in Dulbecco's modified Eagle's medium (10% FBS) at 37° C. with 5% CO2. […]
Imaging data were analyzed with Metafluor 6.2 software (Universal Imaging, Downingtown, Pa.). Fluorescence images were background-corrected by deducting the background (regions with no cells) from the emission intensities of CFP or YFP. […]
It has been known that Akt has several mitochondrial substrates. […] In summary, no basal, PDGF-stimulated, or phosphatase-suppressed endogenous Akt was detected at this location. It is possible that the extremely low activity of Akt at the mitochondrial outer membrane cannot be detected by Mito-AktAR.

O=c1cc(N2CCOCC2)oc2c(-c3ccccc3)cccc12 [LY294002]
effect on Mito-AktAR response (overexpressed Mito-mCherry-Akt1, Calyculin A 5 nM or LY294002): did not induce any decrease of FRET ratio | effect on Mito-AktAR response (overexpressed mCherry-Akt1, after PDGF, Calyculin A 5 nM or LY294002 20 μM): reversed
